Literature values, collected in patent US20200236925A1, “METHODS AND FORMULATIONS FOR PREVENTING DOWNWARD MIGRATION OF AGRICULTURAL MATERIALS” (BAYER CROPSCIENCE LP, priority 2019, published 2020).
Read-outs that look alike come from different tables or passages of the source.

SMILES: Cc1ccc2c(c1)[C@H](Nc1nc(N)nc(C(C)F)n1)[C@@H](C)C2 (mixture of isomers) [indaziflam, N2-[(1R,2S)-2,3-dihydro-2,6-dimethyl-1H-inden-1-yl]-6-[(1RS)-1-fluoroethyl]-1,3,5-triazine-2,4-diamine]
- leaching depth (under 5 cm of simulated rainfall shortly after application): 13 cm
- leaching depth (under 15 cm of simulated rainfall shortly after application): 30 cm
